From paper PMC4941120
Results are given in words; binding and its absence hold for the method and conditions named. In cells and extracts the contact can be indirect. Some binding calls cover weakened binding; strength is not graded here. Sequences can lack the tags named with a protein.

T1: COX11 (human (endogenous in HEK293)) (UniProt Q9Y6N1)
T1 sequence: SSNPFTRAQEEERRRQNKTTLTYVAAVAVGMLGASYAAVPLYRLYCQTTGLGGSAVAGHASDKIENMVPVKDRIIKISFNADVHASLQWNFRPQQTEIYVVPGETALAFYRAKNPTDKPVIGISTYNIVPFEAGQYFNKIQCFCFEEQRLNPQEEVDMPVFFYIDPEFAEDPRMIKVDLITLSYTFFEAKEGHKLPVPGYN


Biological target: T1, COX11 (human (endogenous in HEK293))
Assay: co-IP; COX11 immunoprecipitates (IP: COX11) from lysates of cells expressing vector, Flag-WARS2 or Flag-WARS2(L53F), immunoblotted for COX11 and Flag; lysis in 20 mM HEPES pH 7.4, 137 mM NaCl, 1% Triton X-100

binding | Binder
binds | Flag-tagged wild-type WARS2 (enzyme, UniProt Q9UGM6 19-360) LHKGSAAAPALQKDSKKRVFSGIQPTGILHLGNYLGAIESWVRLQDEYDSVLYSIVDLHSITVPQDPAVLRQSILDMTAVLLACGINPEKSILFQQSQVSEHTQLSWILSCMVRLPRLQHLHQWKAKTTKQKHDGTVGLLTYPVLQAADILLYKSTHVPVGEDQVQHMELVQDLAQGFNKKYGEFFPVPESILTSMKKVKSLRDPSAKMSKSDPDKLATVRITDSPEEIVQKFRKAVTDFTSEVTYDPAGRAGVSNIVAVHAAVTGLSVEEVVRRSAGMNTARYKLAVADAVIEKFAPIKREIEKLKLDKDHLEKVLQIGSAKAKELAYTVCQEVKKLVGFL
binds | Flag-tagged mutant WARS2(L53F) (enzyme, UniProt Q9UGM6 19-360) LHKGSAAAPALQKDSKKRVFSGIQPTGILHLGNYFGAIESWVRLQDEYDSVLYSIVDLHSITVPQDPAVLRQSILDMTAVLLACGINPEKSILFQQSQVSEHTQLSWILSCMVRLPRLQHLHQWKAKTTKQKHDGTVGLLTYPVLQAADILLYKSTHVPVGEDQVQHMELVQDLAQGFNKKYGEFFPVPESILTSMKKVKSLRDPSAKMSKSDPDKLATVRITDSPEEIVQKFRKAVTDFTSEVTYDPAGRAGVSNIVAVHAAVTGLSVEEVVRRSAGMNTARYKLAVADAVIEKFAPIKREIEKLKLDKDHLEKVLQIGSAKAKELAYTVCQEVKKLVGFL
